Source: article PMC11077054

Experiments:
CmoDREB2A-His = assay: EMSA; settings: EMSA gel in Tris-borate EDTA, 100 V, 60 min, 4 C, binding buffer, salt and pH not stated, recombinant protein, protein details: His (pET28a), label: 6-FAM
CmoNAC1-GST = assay: EMSA; settings: EMSA gel in Tris-borate EDTA, 100 V, 60 min, 4 C; binding buffer, salt and pH not stated; recombinant protein; protein details: GST (pGEX-4T-2); label: 6-FAM

| Sequence | binding result (CmoDREB2A-His) | further results |
| --- | --- | --- |
| ATGCCGACGGTGATTACGACAT (double strand) [CmoHAK5;1 promoter DRE probe] | binds |  |
| ATGCCGACGTCAGTCTCTTCTT (double strand) [CmoHAK5;2 promoter DRE probe] | binds |  |
| TACGTATATATTTCGCAACTTT (double strand) [CmoDREB2A promoter NACbs probe] |  | binding result (CmoNAC1-GST): binds |
| TGGCCGACTTTGCCCGTGATCT (double strand) [CmoNAC1 promoter DRE probe] |  | binding result (CmoDREB2A-His; unlabeled probe decreased the shift): binds |

For at least one entry, the source does not settle the construct or the ends of the probe.
